PubChem BioAssay AID504774, Drosophila RNAi Screening Center | 2011

Assay: 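Genes required for cells to withstand methyl methanesulphonate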 (primary screen)
Cells: Drosophila Kc167 cells
Knock-down reagent: long dsRNA against Drosophila genes, about 0.25 µg dsRNA per well
Time to read-out: about 6 days: 3 days knock-down, then 3 days with or without MMS
Challenge: methyl methanesulphonate 0.004% (w/v) for 3 days after knock-down
Read-out: 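Viability in wells given MMS, read as ATP luminescence, normalised by quantiles plate by plate and averaged across replicates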
Scale: mean viability with MMS and viability with MMS: higher = more surviving cells after MMS
The deposit covers about 23,000 reagents; below is a random part of those that have a named target and a result. 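Values are quantile-normalised luminescence on an arbitrary scale; higher means more cells surviving MMS.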 Reagents against one gene are numbered here. Further read-outs or replicates are left out here. Reagent sequences are not shown.

Knock-down of Mink (Mitotic spindle and nuclear protein) came out at: mean viability with MMS 3.51e6; viability with MMS, replicate 1 = 4.02e6.
Depletion of Ugt35A1 (UDP-glycosyltransferase family 35 member A1) resulted in: mean viability with MMS 3.48e6; viability with MMS, replicate 1 = 3.95e6.
After knock-down of Mur18B (Mucin related 18B) the results were mean viability with MMS 3.55e6; viability with MMS, replicate 1 = 4.01e6.
With knock-down of CG10352 the results were mean viability with MMS 3.61e6; viability with MMS, replicate 1 = 4.06e6.
With knock-down of CG9372, the record shows mean viability with MMS 3.74e6; viability with MMS, replicate 1 = 4.24e6.
For tho2 the deposit lists mean viability with MMS 2.84e6; viability with MMS, replicate 1 = 3.14e6.
Knock-down of CG14662 resulted in: mean viability with MMS 3.28e6; viability with MMS, replicate 1 = 3.71e6.
For CG9284 (retired record) #1 the deposit lists mean viability with MMS 3.43e6; viability with MMS, replicate 1 = 3.84e6.
For CG9284 (retired record) #2, the entry reads mean viability with MMS 3.61e6; viability with MMS, replicate 1 = 4.11e6.
Veneno gave mean viability with MMS 3.72e6; viability with MMS, replicate 1 = 4.25e6.
Silencing of Mst77F (Male-specific transcript 77F) came out at: mean viability with MMS 3.73e6; viability with MMS, replicate 1 = 4.13e6.

4 entries from above, showing only “mean viability with MMS”.
CG14662: 3.28e6
CG9284 (retired record) #1: 3.43e6
CG9284 (retired record) #2: 3.61e6
Veneno: 3.72e6

Next entries follow.
Ag5r2 (Antigen 5-related 2) scored mean viability with MMS 3.53e6; viability with MMS, replicate 1 = 4.03e6.
Against osa, the values are mean viability with MMS 3.47e6; viability with MMS, replicate 1 = 3.86e6.
CG11030 scored mean viability with MMS 3.48e6; viability with MMS, replicate 1 = 3.84e6.
With knock-down of l(2)dtl (lethal-(2)-denticleless) the results were mean viability with MMS 2.97e6; viability with MMS, replicate 1 = 3.49e6.
For CG32447 #1, the entry reads mean viability with MMS 3.84e6; viability with MMS, replicate 1 = 4.21e6.
CG32447 #2 gave mean viability with MMS 3.70e6; viability with MMS, replicate 1 = 4.21e6.
Against Or42a (Odorant receptor 42a), the values are mean viability with MMS 3.49e6; viability with MMS, replicate 1 = 3.88e6.
Silencing of His-Psi:CR31754 (pseudo) gave: mean viability with MMS 3.27e6; viability with MMS, replicate 1 = 3.84e6.
CG5815 showed mean viability with MMS 3.60e6; viability with MMS, replicate 1 = 4.16e6.
For GluRIID (Glutamate receptor IID), the values are mean viability with MMS 3.58e6; viability with MMS, replicate 1 = 4.16e6.
Knock-down of Claspin gave: mean viability with MMS 1.53e6; viability with MMS, replicate 1 = 3.61e6.
CG5357 (retired record) showed mean viability with MMS 3.53e6; viability with MMS, replicate 1 = 3.96e6.
Knock-down of Pi4KIIalpha (Phosphatidylinositol 4-kinase II alpha) #1 came out at: mean viability with MMS 3.74e6; viability with MMS, replicate 1 = 4.29e6.
Against Pi4KIIalpha (Phosphatidylinositol 4-kinase II alpha) #2 the deposit lists mean viability with MMS 3.62e6; viability with MMS, replicate 1 = 4.10e6.
